From PubChem BioAssay AID493014 (National Center for Advancing Translational Sciences (NCATS), 2011)
The whole screen tested about 340,000 compounds, of which about 170 (0.05%) were called active. Inconclusive results, whose numbers are uncertain, are shown with a selection of clear calls. The call rests on the fitted dose curve; in most records, active means well fitted inhibition curve with a large enough effect in the signal ratio, with a control signal flat (not every such curve was filed as active); inconclusive means small, poorly fitted or top-dose-only effect, or effect the other way, or a change in a side signal; inactive means flat fitted curve, though single readings scatter; the % refers to the signal ratio. Potencies of inconclusive entries are doubtful fits and often do not repeat.

Experiment: qHTS Assay to Find Inhibitors of Chronic Active B-Cell Receptor Signaling;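 on activity change, negative = inhibition: plate controls were basal doxycycline-induced cells for no effect and cells given 10 µM MG132 for full effect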
Details: ABC-DLBCL IkBa-CBG/CBR reporter, luminescence ratio (green luciferase fused to IkBa over red control in TMD8 lymphoma cells), 4 h; activity change, negative = inhibition: at 46.1 µM (top of the series)
Procedure, shortened: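 TMD8 ABC-DLBCL cells carrying doxycycline-inducible green luciferase fused to IkappaBalpha plus unfused red luciferase were exposed to compounds (up to 46 uM) for 4 hrs at 37C. Activity came from the overlap-corrected green/red luminescence ratio.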
Potency means the concentration at half of the fitted maximal effect.

Row | Structure (SMILES) | Potency | activity change, negative = inhibition
1 | CCOc1ccc2[nH]c(C(=O)N/N=C/c3cccc(OC)c3OC)cc2c1 | inconclusive: 11.2 µM [falling, partial curve, poor fit] | –
2 | NC(=O)c1ccc(NC(=O)CN2C(=O)NC3(CCCCCCC3)C2=O)cc1 | – | inactive: -3.17%
3 | CCOC(=O)C(c1ccccc1)C(Nc1ccc(F)cc1)c1ccccn1 (stereo unspecified) | – | inactive: 7.97%
4 | COc1cccc(-c2nnc(SCC(=O)Nc3cc(C)on3)o2)c1 | inconclusive: 25.1 µM [falling, single point] | –
5 | CSc1nnc2c3c4c(sc3nc(-n3nc(C)cc3C)n12)COC(C)(C)C4 | – | inactive: -0.269%
6 | O=C(Nc1ccc(N2CCOCC2)cc1)Nc1ccc(Cl)c(Cl)c1 | – | inactive: -4.23%
7 | COc1ccc(/C=N/NC(=O)c2[nH]nc3c2CCc2ccccc2-3)cc1OC | inconclusive: 20.6 µM [falling, partial curve] | –
8 | CC(C)(C)C(=O)Nc1ccc(N=Nc2ccccc2)cc1 | inconclusive: 35.5 µM [falling, single point] | –
9 | CCCn1nnnc1NCc1ccc(CC)cc1 | – | inconclusive: 1.09%
10 | Cc1cc(C)nc(-n2nc(C)c(Sc3ccc(F)cc3)c2N)n1 | inconclusive: 17.8 µM [falling, single point] | –
11 | CCOC(=O)C1CCCN(C(=O)Cn2sc3nc(C)cc(C)c3c2=O)C1 (stereo unspecified) | inconclusive: 9.2 µM [rising, partial curve] | –
12 | O=C(O)c1ccccc1Nc1ccnc(C(F)(F)F)c1 | – | inconclusive: -6.65%
13 | COc1cc2c(cc1OC)C(C)N(C(=O)CCN1C(=O)C3C4C=CC(C4)C3C1=O)CC2 (stereo unspecified) | – | inconclusive: 15%
14 | O=C(N/N=C/c1ccccn1)c1[nH]c2ccc([N+](=O)[O-])cc2c1-c1ccccc1 | inconclusive: 35.5 µM [falling, single point] | –
15 | CN(C)S(=O)(=O)N1CCN(c2ccc([N+](=O)[O-])c(N3CCCCC3)c2)CC1 | – | inactive: -2.95%
16 | COc1cc(OC)cc(C(=O)OCC(=O)Nc2sccc2C(N)=O)c1 | – | inconclusive: -16.9%
17 | COc1ccc(OCC(=O)Nc2ccc(S(=O)(=O)Nc3nc(C)cc(C)n3)cc2)cc1 | – | inactive: 1%
18 | O=C(Nc1ccc(S(=O)(=O)N2CCOCC2)cc1)c1ccco1 | – | inconclusive: 6.33%
19 | O=C(CSc1ccc(F)cc1)NCCSc1ccccc1 | – | inactive: 9.76%
20 | COc1cc(OC)c(C(=O)/C=C/c2ccc(OCc3ccccc3)c(OC)c2)c(OC)c1 | inconclusive: 35.5 µM [falling, single point] | –
21 | CCOc1ccc(NC(=O)CN(C)C(=O)c2c(-c3ccccc3)noc2C)cc1OCC | – | inconclusive: 1.94%

Row | Structure (SMILES) | Potency | activity change, negative = inhibition
22 | O=C(Nc1cccc(Cl)c1)N1CCN(c2ncccn2)CC1 | inconclusive: 29.1 µM [falling, single point] | –
23 | Cc1cc(Br)ccc1S(=O)(=O)NCc1ccccc1 | – | inactive: 0.584%
24 | CC(C)(C)NS(=O)(=O)c1ccc(CCC(=O)Nc2cc(Cl)ccc2Oc2ccccc2)cc1 | – | inconclusive: -4.36%
25 | Cc1ccc(NC(=O)c2ccc3c(c2)C(=O)N(CC2CCCO2)C3=O)cc1C (stereo unspecified) | – | inconclusive: 16.2%
26 | CC(C)C(C)NC(=O)COc1ccc(S(=O)(=O)N2CCOCC2)cc1Cl (stereo unspecified) | – | inactive: -6.59%
27 | Cc1ccc(OCC(=O)Nc2ccc([N+](=O)[O-])cc2)cc1 | – | inconclusive: 2.82%
28 | Cc1ccc(S(=O)(=O)N2CCN(C(=O)CSc3n[nH]c(N)n3)CC2)c(C)c1 | – | inconclusive: -4.53%
29 | O=C(Nc1ccc(Cl)cc1)NC1CCCCC1 | – | inactive: -14%
30 | Cc1ccccc1NC(=O)Cc1nc(COC(=O)c2cccc([N+](=O)[O-])c2)cs1 | – | inactive: -0.745%
31 | CCc1ccc(NC(=O)C(C)OC(=O)c2ccc(NS(=O)(=O)c3ccc(C)c([N+](=O)[O-])c3)cc2)cc1 (stereo unspecified) | – | inconclusive: -19.3%
32 | Cc1cnc(NC(=O)c2ccccn2)s1 | inconclusive: 35.5 µM [rising, single point] | –
33 | O=C(OC(C(=O)Nc1cc(Cl)cc(Cl)c1)c1ccccc1)C1=COCCO1 (stereo unspecified) | – | inconclusive: -8.97%
34 | Cc1ccc(-c2cc(-c3ccccc3O)nc(N/N=C/c3cccnc3)n2)cc1 | – | inconclusive: -4.7%
35 | CCOc1cc(/C=N/O)ccc1OCc1ccc([N+](=O)[O-])cc1 | – | inconclusive: 0.808%
36 | CC(C)C(=O)NC(=S)NCC(=O)c1ccccc1 | – | inactive: 3.13%
37 | COC(=O)c1ccccc1NC(=O)CSc1[nH]c(=O)cc(C)c1C#N | inconclusive: 15.8 µM [falling, single point] | –
38 | CC(=O)NCCc1nc2cc(NS(=O)(=O)c3ccccc3)ccc2n1C | – | inactive: -7.95%
39 | CC1CCCC(C)N1C(=O)COC(=O)c1ccc(Br)o1 (stereo unspecified) | – | inconclusive: 1.9%
40 | COc1cc(OC)cc(C(=O)OCC(=O)Nc2ccc(N3CCCCC3)cc2)c1 | – | inconclusive: 14.1%
41 | COc1cccc2cc(CC(=O)c3ccccc3)c(=O)oc12 | inconclusive: 17.8 µM [falling, single point] | –
42 | Cc1ccc(-c2cc(C(=O)Nc3ccccc3C)c3ccccc3n2)o1 | – | inconclusive: -2.21%

Row | Structure (SMILES) | Potency | activity change, negative = inhibition
43 | CCN1C(=NCCCCO)N[C@@H](c2ccccc2)C(C(=O)OC)=C1C | – | inactive: -2.14%
44 | OCCn1c(-c2ccc3c(c2)OCO3)csc1=Nc1ccccc1 | – | inactive: 0.98%
45 | O=C(COc1ccc(Oc2ccccc2)cc1)NCc1cn2ccccc2n1 | inconclusive: 17.8 µM [falling, partial curve] | –
46 | Cc1cc(C)n(-c2nc3ccccc3s2)n1 | – | inconclusive: 14.6%
47 | COc1cc(O)c(C(CC(=O)N2CCN(c3ccccc3)CC2)c2ccc(N(C)C)cc2)c(OC)c1 (stereo unspecified) | – | inactive: -2.1%
48 | O=c1/c(=C\c2ccc(O)cc2)sc2n1C(c1ccccc1)C(c1ccccc1)=NN=2 (stereo unspecified) | inconclusive: 25.1 µM [falling, single point] | –
49 | O=c1[nH]c(-c2ccc(O)cc2)nc2scc(-c3cccs3)c12 | inconclusive: 11.2 µM [falling, single point] | –
50 | CNCC/C=C1/c2ccccc2CSc2ccccc21 | – | inconclusive: -3.19%
51 | Cc1c(C(=O)N2CCc3ccccc3C2)oc2ccc(Br)cc12 | – | inactive: 8.95%
52 | COc1cccc(NC(=O)c2cc3c(=O)n4ccccc4nc3n(CC(C)C)c2=N)c1 | – | inactive: 7.02%
53 | COc1ccc(N2CCN(C(=O)c3cc4c(-c5ccc(Cl)cc5)nn(C)c4s3)CC2)cc1 | – | inconclusive: 0.0557%
54 | COc1ccc(/C(C)=N/Nc2ncc(Cl)cc2Cl)c(O)c1 | – | inconclusive: -13.6%
55 | COc1cc(CN(C)CC(=O)c2[nH]c(C)c(C(C)=O)c2C)ccc1OC(F)F | – | inconclusive: -1.71%
56 | Cc1ccccc1CN1[C@@H](CC2CCCCC2)COCCS1(=O)=O | – | inactive: 11.2%
57 | Cc1ccc(CNC(=O)CSc2nnc3c(n2)[nH]c2ccccc23)cc1 | – | inactive: -0.736%
58 | CC(=O)c1sc(N/N=C\c2ccccc2O)nc1C | inconclusive: 12.6 µM [falling, single point] | –
59 | COc1ccccc1N1CCN(C(=O)c2cccs2)CC1 | – | inactive: -1.64%
60 | CCCCn1nnc(NC(=O)COc2cc(C)ccc2C(C)C)n1 | – | inconclusive: -7.52%
61 | O=C(CCN1C(=O)C2C3C=CC(C3)C2C1=O)N1CCN(c2ccccc2Cl)CC1 (stereo unspecified) | – | inconclusive: 11.8%
62 | O=C(c1ccc2ncsc2c1)N1CCCC(C(F)(F)F)C1 (stereo unspecified) | – | inconclusive: 7.51%
63 | Oc1ccc(-c2nc3ccc4ccccc4c3c3c2CCC3)cc1O | – | inactive: 6.7%

An excerpt from above in order of length of the SMILES, rising:
Row | Structure (SMILES) | Potency | activity change, negative = inhibition
46 | Cc1cc(C)n(-c2nc3ccccc3s2)n1 | – | inconclusive: 14.6%
59 | COc1ccccc1N1CCN(C(=O)c2cccs2)CC1 | – | inactive: -1.64%
8 | CC(C)(C)C(=O)Nc1ccc(N=Nc2ccccc2)cc1 | inconclusive: 35.5 µM [falling, single point] | –
62 | O=C(c1ccc2ncsc2c1)N1CCCC(C(F)(F)F)C1 (stereo unspecified) | – | inconclusive: 7.51%
60 | CCCCn1nnc(NC(=O)COc2cc(C)ccc2C(C)C)n1 | – | inconclusive: -7.52%
44 | OCCn1c(-c2ccc3c(c2)OCO3)csc1=Nc1ccccc1 | – | inactive: 0.98%
18 | O=C(Nc1ccc(S(=O)(=O)N2CCOCC2)cc1)c1ccco1 | – | inconclusive: 6.33%
6 | O=C(Nc1ccc(N2CCOCC2)cc1)Nc1ccc(Cl)c(Cl)c1 | – | inactive: -4.23%
42 | Cc1ccc(-c2cc(C(=O)Nc3ccccc3C)c3ccccc3n2)o1 | – | inconclusive: -2.21%
35 | CCOc1cc(/C=N/O)ccc1OCc1ccc([N+](=O)[O-])cc1 | – | inconclusive: 0.808%
57 | Cc1ccc(CNC(=O)CSc2nnc3c(n2)[nH]c2ccccc23)cc1 | – | inactive: -0.736%
11 | CCOC(=O)C1CCCN(C(=O)Cn2sc3nc(C)cc(C)c3c2=O)C1 (stereo unspecified) | inconclusive: 9.2 µM [rising, partial curve] | –
40 | COc1cc(OC)cc(C(=O)OCC(=O)Nc2ccc(N3CCCCC3)cc2)c1 | – | inconclusive: 14.1%
33 | O=C(OC(C(=O)Nc1cc(Cl)cc(Cl)c1)c1ccccc1)C1=COCCO1 (stereo unspecified) | – | inconclusive: -8.97%
25 | Cc1ccc(NC(=O)c2ccc3c(c2)C(=O)N(CC2CCCO2)C3=O)cc1C (stereo unspecified) | – | inconclusive: 16.2%
21 | CCOc1ccc(NC(=O)CN(C)C(=O)c2c(-c3ccccc3)noc2C)cc1OCC | – | inconclusive: 1.94%
28 | Cc1ccc(S(=O)(=O)N2CCN(C(=O)CSc3n[nH]c(N)n3)CC2)c(C)c1 | – | inconclusive: -4.53%
20 | COc1cc(OC)c(C(=O)/C=C/c2ccc(OCc3ccccc3)c(OC)c2)c(OC)c1 | inconclusive: 35.5 µM [falling, single point] | –
13 | COc1cc2c(cc1OC)C(C)N(C(=O)CCN1C(=O)C3C4C=CC(C4)C3C1=O)CC2 (stereo unspecified) | – | inconclusive: 15%

Later entries:

Row | Structure (SMILES) | Potency | activity change, negative = inhibition
64 | Nc1c(C(=O)CSc2nnc(-c3ccccc3)o2)c(=O)[nH]c(=O)n1C1CC1 | – | inconclusive: 2.7%
65 | O=C(NN=Cc1c(F)c(F)c(F)c(F)c1F)c1ccc(NS(=O)(=O)c2cccs2)cc1 | – | inconclusive: -10.7%
66 | NS(=O)(=O)c1ccc2nc(NC(=O)Nc3ccccc3F)sc2c1 | – | inconclusive: 2.4%
67 | COc1ccc2c(c1)N(C)/C(=C/c1cccc[n+]1C)S2 | – | inactive: -5.12%
68 | O=C1C(=Cc2cccn2-c2ccc(O)cc2)C(=O)c2ccccc21 | inconclusive: 14.1 µM [rising, partial curve, poor fit] | –
69 | FC(F)(F)C(F)(F)C(F)(F)c1nnc2ccc(N3CCOCC3)nn12 | inconclusive: 1.46 µM [falling, partial curve, poor fit] | –
70 | CCOC(=O)c1c(NC(=O)C(C)OC(=O)C2=COCCO2)sc2c1CCCC2 (stereo unspecified) | – | inactive: 11.3%
71 | CCOC(=O)C(=O)NC12CC3CC(CC(C3)C1)C2 | – | inconclusive: -0.274%
72 | CNC(=O)[C@@H]1C[C@H]1[C@@H](NC(=O)OCc1ccccc1)c1ccccc1 | – | inconclusive: -16.2%
73 | CCC(CC)c1nnc(NC(=O)c2cc(-c3ccccc3)nc3ccccc23)s1 | – | inactive: -0.875%
74 | COC(=O)c1[nH]c(C)c(/C(O)=C2\C(=O)C(=O)N(CCN(C)C)C2c2cccc(OC)c2OC)c1C (stereo unspecified) | inconclusive: 16.4 µM [falling, partial curve, poor fit] | –
75 | N#CC1=C(N)Oc2cc(N)ccc2C1C1CCCCC1 (stereo unspecified) | inconclusive: 16.4 µM [falling, partial curve, poor fit] | –
76 | COc1ccc(C(=O)NC(=S)Nc2ccc(S(N)(=O)=O)cc2)cc1 | – | inconclusive: 3.97%
77 | CC1CCCCC1NC(=O)NC(=O)COC(=O)c1cncc(Br)c1 (stereo unspecified) | – | inconclusive: -3.29%
78 | Oc1ccc(C2=NNC(c3ccc(O)cc3)=NN2)cc1 | inconclusive: 1.78 µM [rising, partial curve, poor fit] | –
79 | CCN(CC)C(=O)c1ccc(-c2nnc(Nc3ccc(O)cc3)c3ccccc23)cc1 | – | inactive: -0.25%
80 | CCN(C[C@H]1N[C@@](CC)(C(=O)OC)[C@H]2C(=O)N(Cc3ccccc3)C(=O)[C@@H]12)C(=O)c1ccccc1 | – | inactive: -0.718%
81 | COc1ccc(C2C3=C(CCCC3=O)Nc3nc(-c4cc(OC)c(OC)c(OC)c4)nn32)cc1OC (stereo unspecified) | inconclusive: 23.1 µM [falling, single point] | –
